These are yes or no findings as the source states them, for the method shown. In cells and extracts the contact can be indirect. Some binding calls cover weakened binding; strength is not graded here. Where a sequence is shown, tags or fusion partners need not be part of it.

The text below walks through data of patent publication US20130266582A1.

For assay [1], the target named is T1, Flag-tagged ROC fragment ΔP-Loop (lacking amino acids 695-702) (human) (UniProt P53355).
T1 sequence: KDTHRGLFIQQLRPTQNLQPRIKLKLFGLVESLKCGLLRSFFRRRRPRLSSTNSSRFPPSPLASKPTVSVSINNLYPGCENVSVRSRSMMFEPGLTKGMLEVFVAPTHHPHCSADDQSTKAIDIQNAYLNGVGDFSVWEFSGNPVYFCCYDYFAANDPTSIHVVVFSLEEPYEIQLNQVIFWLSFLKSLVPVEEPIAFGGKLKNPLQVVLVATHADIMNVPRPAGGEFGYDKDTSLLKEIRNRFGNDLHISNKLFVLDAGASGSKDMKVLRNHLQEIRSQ
Put plainly: co-immunoprecipitation with anti-Flag beads from co-transfected HEK 293T cells, western blot (FIG. 2D).

The target in assay [2] is T2, Flag-ROC fragment (N-terminal Flag-tagged DAPk ROC fragment, amino acids 667-954) (human) (UniProt P53355).
T2 sequence: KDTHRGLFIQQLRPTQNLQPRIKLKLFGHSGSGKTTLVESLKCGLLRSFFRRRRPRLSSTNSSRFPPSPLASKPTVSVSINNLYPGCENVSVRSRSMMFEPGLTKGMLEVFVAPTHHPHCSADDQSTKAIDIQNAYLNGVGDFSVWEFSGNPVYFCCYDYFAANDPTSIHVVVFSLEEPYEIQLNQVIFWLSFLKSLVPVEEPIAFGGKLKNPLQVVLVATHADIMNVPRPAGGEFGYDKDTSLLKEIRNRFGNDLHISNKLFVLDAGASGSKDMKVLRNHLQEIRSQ
Described as above.

B1: HA-ROC (N-terminal HA-tagged DAPk ROC fragment, amino acids 667-954) (protein, not shown: small tags and cut ends)
chain: T2 sequence
With B1, the binding result in assay [1] and in assay [2] was “binds” each time.
